# Measured values as given in patent US8044198B2, “Sirtuin modulating compounds” (Sirtris Pharmaceuticals, Inc., priority 2005, dated 2011).
# At least one structure is not confirmed: it was looked up by name or label, or the drawing left a doubt.
# Biological target: T1, SIRT1 (Homo sapiens, UniProt Q96EB6)
# T1 sequence (Q96EB6 1-747): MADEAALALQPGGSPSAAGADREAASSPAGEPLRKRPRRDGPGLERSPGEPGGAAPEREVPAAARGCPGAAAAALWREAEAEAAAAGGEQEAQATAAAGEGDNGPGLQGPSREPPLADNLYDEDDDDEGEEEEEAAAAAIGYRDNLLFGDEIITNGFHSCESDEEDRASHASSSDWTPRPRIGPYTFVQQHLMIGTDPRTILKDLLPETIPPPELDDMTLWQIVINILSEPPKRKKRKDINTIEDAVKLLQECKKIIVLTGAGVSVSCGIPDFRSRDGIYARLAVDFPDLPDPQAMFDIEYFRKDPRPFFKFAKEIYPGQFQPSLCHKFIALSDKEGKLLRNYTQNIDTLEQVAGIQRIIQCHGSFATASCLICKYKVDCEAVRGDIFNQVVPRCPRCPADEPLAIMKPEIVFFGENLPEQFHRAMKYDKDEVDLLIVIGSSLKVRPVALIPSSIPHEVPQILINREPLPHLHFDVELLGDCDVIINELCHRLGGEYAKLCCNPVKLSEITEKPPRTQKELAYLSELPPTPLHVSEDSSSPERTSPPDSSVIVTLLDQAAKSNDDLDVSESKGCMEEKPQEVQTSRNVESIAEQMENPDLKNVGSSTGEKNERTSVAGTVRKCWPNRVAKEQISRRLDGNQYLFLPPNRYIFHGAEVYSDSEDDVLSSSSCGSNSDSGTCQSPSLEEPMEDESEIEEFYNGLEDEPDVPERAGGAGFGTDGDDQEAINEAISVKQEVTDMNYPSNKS
# Experiment: SIRT1 mass spectrometry (MS) based deacetylation assay; also: test concentration or dose not given here
# Assay type: biochemical
# Settings: Sirt1 activators; fold activation as determined by MS
smiles,measurement,value
COc1ccc(OC(=O)Nc2ccccc2-c2nc3ccncc3s2)cc1 [Compound 597],FOLD ACT. MS,B (B (Fold Activation <250%))
